According to PMC5738357:
No constants are given. Whether binding was seen depends on the method and setting. Binding seen in cells or lysates may run through a third protein. Some results given as binding are weak or reduced against the parent protein; the word gives no strength. Values belong to the molecule of their own block, whether it stands above or below them.

Amino acid sequences for entries named in this document (tags omitted).
UniProt P42945: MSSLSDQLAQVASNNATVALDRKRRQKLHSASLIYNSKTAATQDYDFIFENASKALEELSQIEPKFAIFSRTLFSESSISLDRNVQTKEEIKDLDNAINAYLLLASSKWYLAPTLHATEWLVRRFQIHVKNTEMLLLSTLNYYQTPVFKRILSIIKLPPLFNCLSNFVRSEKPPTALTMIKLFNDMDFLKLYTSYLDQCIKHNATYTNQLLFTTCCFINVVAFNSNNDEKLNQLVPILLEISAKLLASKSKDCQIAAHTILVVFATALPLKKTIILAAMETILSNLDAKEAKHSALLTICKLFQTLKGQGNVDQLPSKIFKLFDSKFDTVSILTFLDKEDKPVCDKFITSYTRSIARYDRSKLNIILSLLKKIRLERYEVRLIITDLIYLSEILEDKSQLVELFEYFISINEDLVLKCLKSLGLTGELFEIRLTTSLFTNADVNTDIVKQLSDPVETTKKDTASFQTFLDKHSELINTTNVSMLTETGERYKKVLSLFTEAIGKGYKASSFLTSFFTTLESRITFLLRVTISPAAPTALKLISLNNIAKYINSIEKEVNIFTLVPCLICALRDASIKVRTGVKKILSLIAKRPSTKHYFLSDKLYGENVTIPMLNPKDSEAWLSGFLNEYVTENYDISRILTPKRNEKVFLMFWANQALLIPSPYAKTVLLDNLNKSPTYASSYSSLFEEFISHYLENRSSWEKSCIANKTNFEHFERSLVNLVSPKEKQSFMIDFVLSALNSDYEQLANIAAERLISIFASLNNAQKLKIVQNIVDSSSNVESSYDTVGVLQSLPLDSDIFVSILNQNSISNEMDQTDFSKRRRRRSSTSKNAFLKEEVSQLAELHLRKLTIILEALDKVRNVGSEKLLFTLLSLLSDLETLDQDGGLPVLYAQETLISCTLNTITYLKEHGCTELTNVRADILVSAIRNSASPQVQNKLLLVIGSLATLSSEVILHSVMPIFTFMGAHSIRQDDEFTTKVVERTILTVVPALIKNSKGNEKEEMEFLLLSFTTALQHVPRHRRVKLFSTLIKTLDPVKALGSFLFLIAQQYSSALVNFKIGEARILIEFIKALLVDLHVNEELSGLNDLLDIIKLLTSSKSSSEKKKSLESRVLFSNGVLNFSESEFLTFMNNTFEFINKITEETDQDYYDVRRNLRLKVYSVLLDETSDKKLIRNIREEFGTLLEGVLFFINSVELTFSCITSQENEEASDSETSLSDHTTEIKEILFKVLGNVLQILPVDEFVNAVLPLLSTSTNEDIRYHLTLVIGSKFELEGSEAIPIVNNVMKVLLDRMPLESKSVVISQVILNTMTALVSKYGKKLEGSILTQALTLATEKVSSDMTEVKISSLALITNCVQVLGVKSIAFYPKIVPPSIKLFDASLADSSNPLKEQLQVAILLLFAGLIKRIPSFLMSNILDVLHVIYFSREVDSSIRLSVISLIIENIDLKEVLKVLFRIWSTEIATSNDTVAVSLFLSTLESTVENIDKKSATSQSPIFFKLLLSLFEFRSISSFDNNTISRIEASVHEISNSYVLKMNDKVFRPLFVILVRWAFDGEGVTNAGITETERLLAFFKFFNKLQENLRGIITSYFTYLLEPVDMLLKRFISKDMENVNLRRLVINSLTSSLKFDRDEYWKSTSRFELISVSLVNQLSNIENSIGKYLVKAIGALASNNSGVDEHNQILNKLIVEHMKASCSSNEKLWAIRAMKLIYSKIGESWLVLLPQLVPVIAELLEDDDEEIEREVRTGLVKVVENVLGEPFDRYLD
UniProt Q05022: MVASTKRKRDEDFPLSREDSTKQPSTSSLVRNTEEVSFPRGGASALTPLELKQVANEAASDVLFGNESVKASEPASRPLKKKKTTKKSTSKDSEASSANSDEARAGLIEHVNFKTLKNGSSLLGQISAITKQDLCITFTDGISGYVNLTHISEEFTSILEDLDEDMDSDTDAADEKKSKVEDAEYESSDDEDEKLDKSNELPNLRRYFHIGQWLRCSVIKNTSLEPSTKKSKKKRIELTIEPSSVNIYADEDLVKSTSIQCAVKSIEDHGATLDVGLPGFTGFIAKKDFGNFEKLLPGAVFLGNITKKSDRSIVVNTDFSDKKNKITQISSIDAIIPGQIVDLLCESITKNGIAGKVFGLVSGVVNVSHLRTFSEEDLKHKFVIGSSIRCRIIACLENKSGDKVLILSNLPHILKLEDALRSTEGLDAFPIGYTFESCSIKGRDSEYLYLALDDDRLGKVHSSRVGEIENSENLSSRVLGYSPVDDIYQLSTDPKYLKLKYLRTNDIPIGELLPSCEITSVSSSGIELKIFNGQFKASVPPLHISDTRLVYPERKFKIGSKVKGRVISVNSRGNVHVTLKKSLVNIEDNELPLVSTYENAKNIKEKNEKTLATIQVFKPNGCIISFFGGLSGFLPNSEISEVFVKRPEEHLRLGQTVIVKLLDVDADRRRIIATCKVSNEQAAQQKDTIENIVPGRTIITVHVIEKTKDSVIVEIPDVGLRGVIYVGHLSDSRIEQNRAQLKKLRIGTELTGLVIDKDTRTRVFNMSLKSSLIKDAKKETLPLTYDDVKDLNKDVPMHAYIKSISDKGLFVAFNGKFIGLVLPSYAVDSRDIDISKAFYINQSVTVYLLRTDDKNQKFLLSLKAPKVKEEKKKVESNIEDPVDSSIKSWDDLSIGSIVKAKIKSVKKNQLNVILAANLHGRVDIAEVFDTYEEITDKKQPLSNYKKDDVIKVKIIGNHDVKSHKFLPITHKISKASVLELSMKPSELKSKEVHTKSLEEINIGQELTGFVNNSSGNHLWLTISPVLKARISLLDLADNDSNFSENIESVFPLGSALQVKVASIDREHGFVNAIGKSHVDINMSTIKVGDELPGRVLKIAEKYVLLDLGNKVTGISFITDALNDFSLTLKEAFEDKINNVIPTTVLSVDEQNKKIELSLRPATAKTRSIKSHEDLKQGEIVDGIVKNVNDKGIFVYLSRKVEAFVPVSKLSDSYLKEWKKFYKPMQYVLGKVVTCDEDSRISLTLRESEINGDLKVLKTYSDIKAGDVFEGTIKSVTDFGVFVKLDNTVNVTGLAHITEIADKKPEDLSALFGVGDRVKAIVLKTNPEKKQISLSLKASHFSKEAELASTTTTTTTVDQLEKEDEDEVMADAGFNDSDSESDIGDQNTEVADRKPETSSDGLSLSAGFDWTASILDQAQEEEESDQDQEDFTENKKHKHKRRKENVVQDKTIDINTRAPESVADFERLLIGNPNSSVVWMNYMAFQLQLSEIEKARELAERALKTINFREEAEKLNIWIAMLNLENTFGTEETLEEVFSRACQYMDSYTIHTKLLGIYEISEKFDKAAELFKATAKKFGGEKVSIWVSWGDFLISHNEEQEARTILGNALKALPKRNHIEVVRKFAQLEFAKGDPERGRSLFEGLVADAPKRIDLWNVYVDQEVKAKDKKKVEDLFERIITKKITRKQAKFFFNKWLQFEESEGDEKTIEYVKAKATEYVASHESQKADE

Legend:
[1] = biological target: T1, scEnp1-FTpA (S. cerevisiae) (UniProt P38333); assay: co-sedimentation; Enp1-FTpA tandem affinity-purified from Dim2-expressing or Dim2-depleted cells, eluate separated by sucrose gradient centrifugation (Supplementary Fig. 2b)
T1 sequence: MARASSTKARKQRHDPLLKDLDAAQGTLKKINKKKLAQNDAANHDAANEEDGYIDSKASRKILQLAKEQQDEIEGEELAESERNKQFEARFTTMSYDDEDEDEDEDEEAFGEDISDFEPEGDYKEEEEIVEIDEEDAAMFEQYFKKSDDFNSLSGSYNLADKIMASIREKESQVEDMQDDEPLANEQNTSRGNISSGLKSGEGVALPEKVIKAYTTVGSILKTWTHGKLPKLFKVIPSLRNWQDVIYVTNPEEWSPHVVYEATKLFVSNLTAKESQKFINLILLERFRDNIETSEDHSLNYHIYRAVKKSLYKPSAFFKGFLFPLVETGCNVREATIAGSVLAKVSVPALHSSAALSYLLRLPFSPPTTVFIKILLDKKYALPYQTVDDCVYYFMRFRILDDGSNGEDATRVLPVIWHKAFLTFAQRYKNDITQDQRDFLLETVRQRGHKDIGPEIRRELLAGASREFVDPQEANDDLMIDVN

[2] = biological target: scUtp10-FTpA (S. cerevisiae) (UniProt P42945); assay: co-IP; tandem affinity-purification of FTpA-tagged yeast baits (IgG Sepharose, TEV, Flag agarose); western blotting of the Flag eluates; cells with or without depletion of Dim2 or Krr1 where told
[3] = biological target: T2, Ltv1 bait (yeast (S. cerevisiae)) (UniProt P34078); assay: co-IP; late pre-40S particles affinity-purified via the Ltv1 bait from yeast expressing Nob1 or Nob1ΔMID (Supplementary Fig. 3d; detection not shown)
T2 sequence: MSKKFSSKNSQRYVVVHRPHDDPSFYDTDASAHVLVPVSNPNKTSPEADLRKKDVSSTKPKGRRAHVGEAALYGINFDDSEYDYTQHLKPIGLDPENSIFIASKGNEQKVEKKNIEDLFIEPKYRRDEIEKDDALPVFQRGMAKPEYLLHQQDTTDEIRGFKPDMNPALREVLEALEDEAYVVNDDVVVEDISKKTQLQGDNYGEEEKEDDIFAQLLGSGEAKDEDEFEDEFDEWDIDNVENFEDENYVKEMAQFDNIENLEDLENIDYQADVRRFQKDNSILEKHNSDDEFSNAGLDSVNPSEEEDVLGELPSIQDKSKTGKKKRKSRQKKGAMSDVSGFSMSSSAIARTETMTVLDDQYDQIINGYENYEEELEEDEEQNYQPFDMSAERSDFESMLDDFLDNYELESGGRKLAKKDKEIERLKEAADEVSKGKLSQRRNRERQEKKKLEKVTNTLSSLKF

Molecule: Rrp5 (from UniProt Q05022 1-1729)
binding [1]: binds

B2: Dis3 (protein, UniProt Q08162 1-1001)
chain: MSVPAIAPRRKRLADGLSVTQKVFVRSRNGGATKIVREHYLRSDIPCLSRSCTKCPQIVVPDAQNELPKFILSDSPLELSAPIGKHYVVLDTNVVLQAIDLLENPNCFFDVIVPQIVLDEVRNKSYPVYTRLRTLCRDSDDHKRFIVFHNEFSEHTFVERLPNETINDRNDRAIRKTCQWYSEHLKPYDINVVLVTNDRLNREAATKEVESNIITKSLVQYIELLPNADDIRDSIPQMDSFDKDLERDTFSDFTFPEYYSTARVMGGLKNGVLYQGNIQISEYNFLEGSVSLPRFSKPVLIVGQKNLNRAFNGDQVIVELLPQSEWKAPSSIVLDSEHFDVNDNPDIEAGDDDDNNESSSNTTVISDKQRRLLAKDAMIAQRSKKIQPTAKVVYIQRRSWRQYVGQLAPSSVDPQSSSTQNVFVILMDKCLPKVRIRTRRAAELLDKRIVISIDSWPTTHKYPLGHFVRDLGTIESAQAETEALLLEHDVEYRPFSKKVLECLPAEGHDWKAPTKLDDPEAVSKDPLLTKRKDLRDKLICSIDPPGCVDIDDALHAKKLPNGNWEVGVHIADVTHFVKPGTALDAEGAARGTSVYLVDKRIDMLPMLLGTDLCSLKPYVDRFAFSVIWELDDSANIVNVNFMKSVIRSREAFSYEQAQLRIDDKTQNDELTMGMRALLKLSVKLKQKRLEAGALNLASPEVKVHMDSETSDPNEVEIKKLLATNSLVEEFMLLANISVARKIYDAFPQTAMLRRHAAPPSTNFEILNEMLNTRKNMSISLESSKALADSLDRCVDPEDPYFNTLVRIMSTRCMMAAQYFYSGAYSYPDFRHYGLAVDIYTHFTSPIRRYCDVVAHRQLAGAIGYEPLSLTHRDKNKMDMICRNINRKHRNAQFAGRASIEYYVGQVMRNNESTETGYVIKVFNNGIVVLVPKFGVEGLIRLDNLTEDPNSAAFDEVEYKLTFVPTNSDKPRDVYVFDKVEVQVRSVMDPITSKRKAELLLK
binding [1]: binds

B3: Rps8 (protein, UniProt P0CX39 1-200)
chain: MGISRDSRHKRSATGAKRAQFRKKRKFELGRQPANTKIGAKRIHSVRTRGGNKKYRALRIETGNFSWASEGISKKTRIAGVVYHPSNNELVRTNTLTKAAIVQIDATPFRQWFEAHYGQTLGKKKNVKEEETVAKSKNAERKWAARAASAKIESSVESQFSAGRLYACISSRPGQSGRCDGYILEGEELAFYLRRLTAKK
binding [2]: binds

B4: Rps5 (protein, UniProt P26783 1-225)
chain: MSDTEAPVEVQEDFEVVEEFTPVVLATPIPEEVQQAQTEIKLFNKWSFEEVEVKDASLVDYVQVRQPIFVAHTAGRYANKRFRKAQCPIIERLTNSLMMNGRNNGKKLKAVRIIKHTLDIINVLTDQNPIQVVVDAITNTGPREDTTRVGGGGAARRQAVDVSPLRRVNQAIALLTIGAREAAFRNIKTIAETLAEELINAAKGSSTSYAIKKKDELERVAKSNR
binding [2]: binds

B5: Nob1 (wild-type reference of Supplementary Fig. 3d) (protein, UniProt Q08444 1-459)
chain: MTENQTAHVRALILDATPLITQSYTHYQNYAQSFYTTPTVFQEIKDAQARKNLEIWQSLGTLKLVHPSENSIAKVSTFAKLTGDYSVLSANDLHILALTYELEIKLNNGDWRLRKKPGDALDASKADVGTDGKQKLTEDNKKEEDSESVPKKKNKRRGGKKQKAKREAREAREAENANLELESKAEEHVEEAGSKEQICNDENIKESSDLNEVFEDADDDGDWITPENLTEAIIKDSGEDTTGSLGVEASEEDRHVALNRPENQVALATGDFAVQNVALQMNLNLMNFMSGLKIKRIRNYMLRCHACFKIFPLPKDGKPKHFCASCGGQGTLLRCAVSVDSRTGNVTPHLKSNFQWNNRGNRYSVASPLSKNSQKRYGKKGHVHSKPQENVILREDQKEYEKVIKQEEWTRRHNEKILNNWIGGGSADNYISPFAITGLKQHNVRIGKGRYVNSSKRRS
binding [3]: binds

Continued, values first:

binding [1]: binds
Molecule: Utp10 (endogenous, yeast) (from UniProt P42945 1-1769)

binding [1]: binds
B1: Rrp12 (protein, UniProt Q12754 1-1228)
chain: MDQDKVAFLLELEDKLAKIRSQVNSKLENQKHIAIILTAVEENIAGQATNDVSKNIVNYIISFMSLLDQAVDPSTHEIKDIQLASSSTYLLDLIFHYSPKVLLRSKFSEILTKIAPCITAEKANAPLIRAAIGCLESLLIAQDAQAWNNTYDLNVTPKRGLQGILELSLDVRPKVRKRALDAVHAVLLNPPVAPTAEHVAAVFVADFCDKQLAGILNDLSNLSNKQLKAQKTKEDINASVMRSLRLITSVVSTGQWPSSQIEPLCDVLLGVTKSSEQYLVSASFECFESMFKTMAETTISSGLAENKYLRVLDTIFALKPSNVDTLLTKSWIAVVIKGMSTYATHQPLKALRKIPGVFHIMCTYLASETPEVYQAASQCLISILSESVKDDLLLYTPSVDEKVFKNVDEIISQIAKTFIDFLSIRYSHCSREILKILVAAFNKFRYRSNPHFLKSLKIVDTWRVNEEQFMDLRNEIELVIGASISAMGPEMILAEAPLNLDNPSSERPGRAWLLPLIRDYTKNANLATFQNELAPYIKSFQSKFDKVPEESIQLRVFQTIVDQIWSTLPRFCELPMDLRESFTDEFASELSSLLYSEVELRTTICHALKVLAESNVSYAEESSSHNVLLLQRFPISEAQKNIEYLSTKSTNLLAVLFNVYTQTTPNARSYILETIDQYLKITSKEDLEKTFNNVCGLLKNSMNEESSGNVNKEKKKPQLTATLLDLIICMITYLPVSSYSALFSMFSLTVNSADALIQKRAYRIITKLSELKSGSTAVAQFISDIENVMVDSASSVQTSAKAARLTAIKTIVELLPLDHLDFIVRTVAEVILSTKDVNEKSRETAFDTLICMGRKMNEPNGIIKLFQIPGYDPTTPDQSSSISEFFKIISAGLIGESQHMVSSSITGYACLVFEFKNELDSGILMDIYDTIELYLTSNSREIVKSAIGFTKVCVLGLPEELMRPKVPELLLKLLRWSHEHTGHFKAKVKHIIERLIRRFGYDYIEANFPEEDRRLLTNIRKMRNRNKRKDEEVTTGVSDVAATKGSRFMSAFDEAVYGSDEENDNGSDQEENVAGGKMKNGAKQFIVESGDNPLDLLDSQTLAHISSTRPKKFNKNQNRARFNDDAFNFDSEGKLVVKGQPKPSTNVDDPLSAVTSGINAYLEAVKSGPVRGQRNKLKFRKNGKDSDEFGDDDDGEKDSRLMRGRVNQGNKIGKHNKKGPKFKSRKKL

binding [1]: binds
B6: Tsr1 (protein, UniProt Q07381 1-788)
chain: MAGHSHRSSLKNGHKSYKSKHASKGALKRLYKGKVEKEPVGTGKPDKQVSKLQRKNKAKQLRAQRILDSIENRKLFEGKNGAAKIITIVPLVNDLDPLDILYKLLKCADDEGIMVQEVDSKRIFNVHIKKFKSNLKIIIPDMTNFLNILDCAKVADFVVFGLSGVQEVDEEFGEQIIRALELQGIASYIGVISNLSAVHEKEKFQLDVKQSLESYFKHFFPSEERVYNLEKNSDALNVLRTLCQRLPRSINWRDNRGYVVADFVDFVETSPDSGDLVIEGTVRGIGFNANRLVHIPDFGDFQLNKIEKISESSQKRKIIKEKATDSLSLELDLQTVFESNMNRDTLDEYAPEGTEDWSDYDEDFEYDGLTTARYDDHGFLPGREQTSKKAAVPKGTSDYQAKWYLDDVIDANEEEEAEQTNGKDETMMEIDDEMMVEQDNEEVAGDEEYDIEDNEGFEELSPEEEERQLREFRDMEKEDREFPDEIELEPSESAIERLKRYRGLKNLYNCDWQVDEKDPSSPAEWKRLLRIGNYKNTKNRIIKETKNEAQAIAGDRIRMFIRFPKFLLEKIQDPKQLLFAVYGLLLHEHKNAVVNFSLQRWEQYDKPVPSQEPIVVQYGVRRYTIQPLFSQGSNSPNNVHKYERFLHPDTVSVATCIAPVDFTQSPAIFFKPSPTDAKNIELIGHGTFLNADHSRILAKRAILTGHPFRFHKTVVTVRYMFFRPEDVEWFKSIPLFTKSGRSGFIKESLGTHGYFKATFDGKLSAQDVVAMSLYKRMWPMPSLPWNGM
